Measured values: publication PMC9433436

Target: T1, RNase P protein C5 (rnpA) (Escherichia coli) (UniProt P0A7Y8)
T1 sequence (looked up, limits assumed): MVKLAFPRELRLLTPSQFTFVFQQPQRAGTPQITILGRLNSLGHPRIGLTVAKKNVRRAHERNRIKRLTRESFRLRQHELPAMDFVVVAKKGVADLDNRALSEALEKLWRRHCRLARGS
Experiment: EMSA dissociation kinetics
Settings: with P RNA, 5 mM Ca2+, 500 nM unlabeled ptRNA_GG chase, about half dissociates rapidly (ES), remainder stays bound; EMSA: 90 mM Tris-HCl pH 8, 100 mM NaCl, 3 mM CaCl2, 7% glycerol, 0.005% reduced Triton X-100; 37 C 3 min then ice 15 min; 7% native gel kept <25 C; recombinant protein; label: 5' 32P (EMSA); probe letters rebuilt from the primers and the genome

Does “GAAUUCUGGGGCUACGUAGCUCAGUUGGUUAGAGCACAUCACUCAUAAUGAUGGGGUCACAGGUUCGAAUCCCGUCGUAGCCACCA [ptRNA_GG]” bind?
Result: binds more weakly

Construct, isoform or probe ends are uncertain for at least one entry. A weaker result is weaker than the reference pair of the same experiment. Protein sequences can lack the tags named with them.
